Literature values in patent US12296006B2, “Anti-LY6H antibodies and antibody drug conjugates” (Bluefin BioMedicine, Inc., priority 2017, dated 2025).
For at least one compound, name, drawing or mass did not settle the structure.

Settings: cited from earlier work

SMILES: COc1cccc2c1C(=O)c1c(O)c3c(c(O)c1C2=O)CC(O)(C(=O)CO)CC3OC1CC2C(OC3C(OC)OCCN23)C(C)O1 [PNU-159682, 3′-deamino-3″,4′-anhydro-[2″(S)-methoxy-3″(R)-hydroxy-4″-morpholinyl] doxorubicin]
- potency in vitro relative to nemorubicin: more than 1000 times
